PubChem BioAssay AID1259331 | Drosophila RNAi Screening Center – 2017
This is a random part of about 3,100 deposited reagents. 126 of them (4.1%) were called active. 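Calls are per reagent; zinc was so toxic that few knock-downs lowered ATP further, so most hits raise ATP.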 Raw values are not corrected between plates. Entries without a mark were called inactive. Not given: the amount of reagent.

- Assay: 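Fly transmembrane-protein genes that affect zinc toxicity in cultured cells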 (primary screen)
- Cell system: Drosophila S2R+ cells
- Knock-down reagent: long dsRNA against Drosophila genes
- Duration: 5 days (4 days knock-down, then 1 day zinc)
- Challenge: zinc chloride at 15 mM final level for 1 day
- Read-out: 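Total cellular ATP measured by luciferase luminescence as a viability proxy, turned into Z scores from three plate copies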
- Reading the numbers: mean Z score: higher = more ATP than other wells, better survival under zinc; ATP luminescence: higher = more ATP, more viable cells
- Call rule: 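a reagent is called a hit when its Z score is above 1.5 or below -1.5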
- Meaning of the calls: active = hit, ATP up or down; inactive = not a hit

Target gene	PubChem SID	mean Z score	ATP luminescence, replicate 1	ATP luminescence, replicate 2
Osi23	SID104194866	0.319	75587	66994
Dop1R2	SID104193750	0.259	79995	65263
Dop1R2	SID104206816	-0.149	57631	60581
ChT	SID104196088	-0.156	43759	41685
Or49b	SID104187286	-0.532	69716	66070
NKCC	SID104191932	-0.09	30045	30799
NKCC	SID104192103	-0.229	75295	55488
CG13920	SID104188181	-0.602	26822	25760
CG13920	SID104217091	-0.184	50721	47377
wgn	SID104199790	-0.431	40553	37485
wgn	SID104217270	0.864	74747	73631
CG3106	SID104198071	-0.536	40845	39388
CG3106	SID104208009	0.0523	60958	63462
Tsp97E	SID104195811	-0.672	36842	38376
Tsp97E	SID104206597	-0.129	55788	54664

The list goes on, starting with the last 3 of the part before.
Target gene	PubChem SID	mean Z score	ATP luminescence, replicate 1	ATP luminescence, replicate 2
CG3106	SID104208009	0.0523	60958	63462
Tsp97E	SID104195811	-0.672	36842	38376
Tsp97E	SID104206597	-0.129	55788	54664
emb	SID104183320	0.555	57905	70579
CG6125	SID104195762	0.389	38410	66753
CG12121	SID104197608	0.902	84078	77885
CG12121	SID104217298	0.52	74884	63239
CG9717	SID104196335	0.534	75640	74163
OstDelta	SID104186772	-0.401	26954	28999
OstDelta	SID104205749	-0.829	42816	55615
TkR86C	SID104196672	-0.243	38548	54253
SerT	SID104184447	0.118	53961	43194
SerT	SID104207478	0.605	70802	70630
Cnx99A	SID104203972	-0.207	37056	62450
Cad96Cb	SID104194035	1.09	44514	78517
Cad96Cb	SID104194457	-0.0454	45731	40965
Cad96Cb	SID104207264	0.292	68709	63016
ATP7	SID104199611	0.184	71899	66234
ATP7	SID104217035	-0.176	49917	52281
Nrx-1	SID104195976	-0.232	42971	41736
CG11703	SID104194148	1.07	58128	55899
CG11703	SID104205051	-0.371	57460	47343
fend	SID104197393	-0.32	62021	67457
fend	SID104197659	-0.897	49898	52487
ppk27	SID104201747	-0.0061	48354	47440
mew	SID104198763	-0.263	67446	68229
mew	SID104200144	0.876	79920	81247
Lgr4	SID104198762	-0.151	68761	63531
Lgr4	SID104199676	0.025	66926	65991
Lgr4	SID104203192	0.325	65489	59500
gb	SID104195753	-0.45	39473	42885
gb	SID104203427	0.339	59689	57780
CG13014	SID104199325	-0.207	40357	43005
CG13014	SID104216574	-0.11	46194	46193
